In US20180200257A1, “METHODS FOR THE TREATMENT OF INFLAMMATORY DISORDERS” (Galapagos NV, priority 2015, published 2018):
The source gives many values for each of these; only a part stands here.

Test system: subjects with moderately to severely active RA who have an inadequate response to methotrexate (MTX)
Experiment: Study 1 (add-on to MTX) - Creatinine levels
Format: in vivo, human
Description: Double-blind, placebo-controlled add on study in subjects with moderately to severely active RA who have an inadequate response to methotrexate (MTX) (oral or parenteral).
595 subjects randomized to one of 6 dose regimens of Compound 1 (dosed as [Compound 1:HCl:3H2O]) (3 dose levels administered either once or twice daily) or placebo on top of each subject's stable dose of MTX.
Compound 1 (dosed as [Compound 1:HCl:3H2O]) is dosed for twelve weeks once daily (q.d.) (50 mg, 100 mg or 200 mg) or twice daily (b.i.d.) (25 mg, 50 mg or 100 mg); or placebo.
At Week 12, the subjects on placebo who have not achieved 20% improvement in swollen joint count (SJC66) and tender joint count (TJC68) are re-randomized automatically to receive Compound 1 (dosed as a [Compound 1:HCl:3H2O]) either at 100 mg q.d. or 50 mg b.i.d. doses in a blinded fashion; subjects on 50 mg q.d. who have not achieved 20% improvement in SJC66 and TJC68 will be assigned to 100 mg q.d. and subjects on 25 mg b.i.d. that have not achieved a 20% improvement in SJC66 and TJC68 will be assigned to 50 mg b.i.d. Subjects who switch treatment at week 12 are handled as if they discontinued at week 12 for the purpose of statistical analysis, whereas subjects in the other groups will maintain their randomized treatment until Week 24.
Creatinine levels determination is available at Quest Diagnostics, Clinical Trials, Quest House, 125-135 Staines Road, Hounslow, Middlesex, TW3 3JB, United Kingdom under Catalogue n# 82565. For Study 3, the data are obtained at BARC Europe, 3B,Industrie Park, Zwijnaarde, B-9052 Ghent, Belgium.
The Enzymatic method is based on the determination of sarcosine after conversion of creatinine with the aid of creatininase, creatinase, and sarcosine oxidase. The liberated hydrogen peroxide reacts with 4-aminophenazone and HTIB to form a quinone imine chromogen. The reaction is catalyzed by peroxidase. The color intensity is directly proportional to concentration of creatinine present and can be measured photometrically.

[1] = continued 25 mg b.i.d. (N = 69), week 0
[2] = continued 25 mg b.i.d. (N = 69), week 1
[3] = continued 25 mg b.i.d. (N = 69), week 2
[4] = continued 25 mg b.i.d. (N = 69), week 4
[5] = continued 25 mg b.i.d. (N = 69), week 8
[6] = continued 25 mg b.i.d. (N = 69), week 12
[7] = continued 25 mg b.i.d. (N = 69), week 16
[8] = continued 25 mg b.i.d. (N = 69), week 20
[9] = continued 25 mg b.i.d. (N = 69), week 24
[10] = continued 50 mg b.i.d. (N = 85), week 0
[11] = continued 50 mg b.i.d. (N = 85), week 1
[12] = continued 50 mg b.i.d. (N = 85), week 2
[13] = continued 50 mg b.i.d. (N = 85), week 4
[14] = continued 50 mg b.i.d. (N = 85), week 8
[15] = continued 50 mg b.i.d. (N = 85), week 12
[16] = continued 50 mg b.i.d. (N = 85), week 16
[17] = continued 50 mg b.i.d. (N = 85), week 20
[18] = continued 50 mg b.i.d. (N = 85), week 24
[19] = continued 50 mg q.d. (N = 63), week 4
[20] = continued 50 mg q.d. (N = 63), week 8
[21] = continued 50 mg q.d. (N = 63), week 12
[22] = continued 50 mg q.d. (N = 63), week 16
[23] = continued 50 mg q.d. (N = 63), week 20
[24] = continued 100 mg b.i.d. (N = 84), week 0
[25] = continued 100 mg b.i.d. (N = 84), week 1
[26] = continued 100 mg b.i.d. (N = 84), week 2
[27] = continued 100 mg b.i.d. (N = 84), week 4
[28] = continued 100 mg b.i.d. (N = 84), week 8
[29] = continued 100 mg b.i.d. (N = 84), week 12
[30] = continued 100 mg b.i.d. (N = 84), week 16
[31] = continued 100 mg b.i.d. (N = 84), week 20
[32] = continued 100 mg b.i.d. (N = 84), week 24
[33] = continued 100 mg q.d. (N = 85), week 0
[34] = continued 100 mg q.d. (N = 85), week 1
[35] = continued 100 mg q.d. (N = 85), week 2

## O=C(Nc1nc2cccc(-c3ccc(CN4CCS(=O)(=O)CC4)cc3)n2n1)C1CC1 [Compound 1, cyclopropanecarboxylic acid {5-[4-(1,1-dioxo-thiomorpholin-4-ylmethyl)-phenyl]-[1,2,4]triazolo[1,5-a]pyridin-2-yl}-amide]
[1]
  Creatinine Mean CFB: 0.0 µmol/L
  Creatinine Mean percentage CFB: 0.0%
[2]
  Creatinine Mean CFB: 1.2 µmol/L
  Creatinine Mean percentage CFB: 2.5%
[3]
  Creatinine Mean CFB: 1.3 µmol/L
  Creatinine Mean percentage CFB: 2.9%
[4]
  Creatinine Mean CFB: 0.7 µmol/L
  Creatinine Mean percentage CFB: 2.1%
[5]
  Creatinine Mean CFB: 1.5 µmol/L
  Creatinine Mean percentage CFB: 3.3%
[6]
  Creatinine Mean CFB: 1.3 µmol/L
  Creatinine Mean percentage CFB: 3.6%
[7]
  Creatinine Mean CFB: 1.8 µmol/L
  Creatinine Mean percentage CFB: 4.3%
[8]
  Creatinine Mean CFB: 1.7 µmol/L
  Creatinine Mean percentage CFB: 4.3%
[9]
  Creatinine Mean CFB: 0.5 µmol/L
  Creatinine Mean percentage CFB: 2.0%
[10]
  Creatinine Mean CFB: 0.0 µmol/L
  Creatinine Mean percentage CFB: 0.0%
[11]
  Creatinine Mean CFB: 2.9 µmol/L
  Creatinine Mean percentage CFB: 5.5%
[12]
  Creatinine Mean CFB: 3.6 µmol/L
  Creatinine Mean percentage CFB: 6.0%
[13]
  Creatinine Mean CFB: 2.9 µmol/L
  Creatinine Mean percentage CFB: 5.4%
[14]
  Creatinine Mean CFB: 3.5 µmol/L
  Creatinine Mean percentage CFB: 6.4%
[15]
  Creatinine Mean CFB: 3.8 µmol/L
  Creatinine Mean percentage CFB: 6.6%
[16]
  Creatinine Mean CFB: 4.7 µmol/L
  Creatinine Mean percentage CFB: 8.2%
[17]
  Creatinine Mean CFB: 5.7 µmol/L
  Creatinine Mean percentage CFB: 9.6%
[18]
  Creatinine Mean CFB: 2.8 µmol/L
  Creatinine Mean percentage CFB: 5.5%
[19]
  Creatinine Mean CFB: 1.1 µmol/L
  Creatinine Mean percentage CFB: 2.8%
[20]
  Creatinine Mean CFB: 2.0 µmol/L
  Creatinine Mean percentage CFB: 4.4%
[21]
  Creatinine Mean CFB: 1.9 µmol/L
  Creatinine Mean percentage CFB: 3.7%
[22]
  Creatinine Mean CFB: 2.6 µmol/L
  Creatinine Mean percentage CFB: 5.1%
[23]
  Creatinine Mean CFB: 2.9 µmol/L
  Creatinine Mean percentage CFB: 5.7%
[24]
  Creatinine Mean CFB: 0.0 µmol/L
  Creatinine Mean percentage CFB: 0.0%
[25]
  Creatinine Mean CFB: 4.6 µmol/L
  Creatinine Mean percentage CFB: 8.2%
[26]
  Creatinine Mean CFB: 4.1 µmol/L
  Creatinine Mean percentage CFB: 7.9%
[27]
  Creatinine Mean CFB: 4.3 µmol/L
  Creatinine Mean percentage CFB: 8.3%
[28]
  Creatinine Mean CFB: 6.6 µmol/L
  Creatinine Mean percentage CFB: 12.1%
[29]
  Creatinine Mean CFB: 6.3 µmol/L
  Creatinine Mean percentage CFB: 11.6%
[30]
  Creatinine Mean CFB: 6.5 µmol/L
  Creatinine Mean percentage CFB: 12.1%
[31]
  Creatinine Mean CFB: 7.0 µmol/L
  Creatinine Mean percentage CFB: 12.7%
[32]
  Creatinine Mean CFB: 6.1 µmol/L
  Creatinine Mean percentage CFB: 11.5%
[33]
  Creatinine Mean CFB: 0.0 µmol/L
  Creatinine Mean percentage CFB: 0.0%
[34]
  Creatinine Mean CFB: 2.3 µmol/L
  Creatinine Mean percentage CFB: 4.2%
[35]
  Creatinine Mean CFB: 2.5 µmol/L
  Creatinine Mean percentage CFB: 4.9%
Continued 100 mg q.d. (N = 85), week 4
  Creatinine Mean CFB: 2.0 µmol/L
